Test results reported in PubChem BioAssay AID1688 (National Center for Advancing Translational Sciences (NCATS), 2009).
Among all 220,000 compounds or so, about 2,400 (1.1%) were called active. The inconclusive results got no clear call from the source; some entries with a clear call stand among them for comparison. Calls follow the shape of the dose curve; as a rule, active = well fitted inhibition curve with a large enough effect; inconclusive = small, poorly fitted or top-dose-only effect, or effect the other way; inactive = no such curve, though single readings can be large or run the other way. Potencies of inconclusive entries are doubtful fits and often do not repeat.

Assay: qHTS Multiplex Assay to Identify Dual Action Probes in a Cell Model of Huntington: Aggregate Formation (GFP); also: nearly all actives have a fitted effect of over 60% in size
Settings: PC12 HttQ103-GFP aggregates, Acumen cytometry, 40 h; activity change, negative = inhibition: at 46.1 µM (top of the series) unless noted
Outline: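 Quantitative HTS on tebufenozide-induced (100 nM) PC12 cells stably expressing polyQ103 Huntingtin exon 1–GFP. Reduction of bright GFP aggregates, detected by laser scanning cytometry after lysis, identified actives across the titration.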
% is scaled to controls: 0 for no effect and ±100 for the full control effect; potency is read from the fitted curve at half-maximal effect.

Row | SMILES | Potency | activity change, negative = inhibition
1 | COc1ccc(N=Cc2cc(Cc3ccccc3Cl)cc([N+](=O)[O-])c2O)cc1OC | active: 22.4 µM | –
2 | COC(=O)c1c(NS(=O)(=O)c2cccs2)sc2c1CCCC2 | inconclusive: 3.16 µM [inhibitor, single point] | –
3 | CS(=O)(=O)c1sc(C#N)c2c1C(=O)CC(c1ccccc1)C2 (stereo not given) | inconclusive: 5.62 µM [inhibitor, single point] | –
4 | COc1ccccc1NC(=S)N(CCCN1CCOCC1)Cc1cn(C)c2ccccc12 | inconclusive: 22.4 µM [inhibitor, single point] | –
5 | CC(C)C1OC(c2cccc(NC(=O)c3cccs3)c2)OCC1(C)C (stereo not given) | inconclusive: 22.4 µM [inhibitor, single point] | –
6 | Cc1ccc(-c2nn(-c3ccccc3)cc2CN(Cc2ccccc2)C(=O)c2ccco2)o1 | inconclusive: 35.5 µM [inhibitor, single point] | –
7 | O=C(NCC1CCCO1)C(=Cc1cccc([N+](=O)[O-])c1)C(=O)NCC1CCCO1 (stereo not given) | inconclusive: 35.5 µM [inhibitor, single point] | –
8 | CC(=O)Nc1cc(C(=O)N(C)Cc2ccco2)ccc1Sc1ccc(Cl)cc1 | inconclusive: 35.5 µM [inhibitor, single point] | –
9 | COc1ccccc1C(=O)Nc1nc(-c2ccc3c(c2)OCCO3)cs1 | inconclusive: 22.4 µM [inhibitor, single point] | –
10 | O=C(O)[C@@H](c1ccccc1)N1Cc2ccccc2C1=O | – | inactive: 13.9%
11 | CC(=O)Oc1c(-c2ccco2)oc2ccccc2c1=O | inconclusive: 10 µM [inhibitor, partial curve] | –
12 | COc1ccc(NC(=O)c2ccc(CN(c3cc(Cl)ccc3C)S(=O)(=O)c3ccccc3)cc2)cc1OC | inconclusive: 0.0891 µM [inhibitor, full curve, poor fit] | –
13 | Cc1nc(SCc2ccc(Cl)cc2)ncc1C(=O)O | inconclusive: 35.5 µM [activator, partial curve, poor fit] | –
14 | CC(C)c1ccc(NC(=O)c2sccc2-n2cccc2)cc1 | inconclusive: 35.5 µM [inhibitor, single point] | –
15 | CNc1sc(C(=O)c2ccccc2F)c(N)c1-c1nc2ccccc2s1 | – | inactive: -26.1%
16 | CCc1cccc(CC)c1NC(=O)c1ccccc1CCc1ccccc1 | inconclusive: 112 µM [inhibitor, partial curve, poor fit] | –
17 | OC(c1ccccc1)(c1ccc(F)cc1)C(c1ccccc1)N1CCOCC1 (stereo not given) | inconclusive: 12.6 µM [inhibitor, partial curve] | –
18 | O=C(COc1ccc(Cl)cc1)Nc1ccc(N2CCN(C(=O)c3ccco3)CC2)cc1 | inconclusive: 12.6 µM [inhibitor, single point] | –
19 | Fc1cccc(Cl)c1CNCc1ccccc1Cl | inconclusive: 0.562 µM [inhibitor, full curve, poor fit] | –
20 | COc1ccc2cc(C(c3nnnn3Cc3ccc(F)cc3)N3CCCCCC3)c(=O)[nH]c2c1 (stereo not given) | – | inactive: 0.397%
21 | CCCc1[nH]nc2c1C(C1CC=CCC1)C(C#N)=C(N)O2 (stereo not given) | inconclusive: 28.2 µM [activator, single point] | –
22 | O=C(CC(Nc1ccc(F)cc1)c1ccccc1)c1ccccc1 (stereo not given) | inconclusive: 35.5 µM [inhibitor, single point] | –
23 | CCCC(=O)NC(C)c1nc2ccccc2n1C (stereo not given) | inconclusive: 0.355 µM [inhibitor, full curve, poor fit] | –

Row | SMILES | Potency | activity change, negative = inhibition
24 | COc1cc(NS(=O)(=O)c2ccc(C)cc2C)cc(OC)c1OC | inconclusive: 1.41 µM [inhibitor, full curve, poor fit] | –
25 | COc1ccc(F)cc1C(=O)C1CCCN(Cc2c[nH]c3ccccc23)C1 (stereo not given) | inconclusive: 1.26 µM [inhibitor, partial curve, poor fit] | –
26 | CCCCc1ccc(NC(=O)CSC2=C(C#N)C(c3ccco3)C3=C(CCCC3=O)N2)cc1 (stereo not given) | inconclusive: 22.4 µM [inhibitor, single point] | –
27 | Cc1ccc(C(=O)N2CCSC2=S)cc1 | – | inactive: -11% [at 9.22 µM]
28 | c1ccc(CC(Nc2ccccn2)c2ccccc2)cc1 (stereo not given) | inconclusive: 14.1 µM [inhibitor, single point] | –
29 | Cn1cc(C=C2C(=O)CC(C)(C)CC2=O)c2ccccc21 | active: 0.0251 µM | –
30 | CC1(C)CC(N2CCCCC2)=CC(=[N+]2CCCCC2)C1 | inconclusive: 5.62 µM [inhibitor, partial curve] | –
31 | Cc1ccccc1NC(=O)c1ccc(Nc2c([N+](=O)[O-])cc([N+](=O)[O-])c3ccccc23)cc1 | inconclusive: 7.94 µM [inhibitor, partial curve] | –
32 | CC/C(=N/Nc1cccc(C)c1)c1cnnc(SC)n1 | – | inactive: -10.3%
33 | O=C(Nc1ccc(OCc2ccccc2)cc1)c1cccnc1 | – | inactive: -3.84%
34 | CC(C)(C)c1csc(NNC(=O)c2ccc(Br)cc2)n1 | inconclusive: 35.5 µM [inhibitor, single point] | –
35 | CCOc1ccc(Br)cc1/C(C)=N\NC1=NCCN1 | active: 12.6 µM | –
36 | O=C(CNC(=O)OCc1ccccc1)Oc1cc2oc(=O)cc(-c3ccccc3)c2cc1Cl | active: 7.08 µM | –
37 | C=CC[n+]1c(-c2ccc(OCC)cc2)csc1NNC(=O)Nc1ccccc1 | inconclusive: 17.8 µM [inhibitor, single point] | –
38 | COc1ccc(/C=N/NC(=O)CNC(=O)COc2ccccc2)cc1 | inconclusive: 2.82 µM [activator, partial curve] | –
39 | O=C(Cn1nnc(-c2ccc(Cl)cc2)n1)NCC1CCCCC1 | inconclusive: 31.6 µM [inhibitor, single point] | –
40 | O=C1c2ccccc2-c2ccc(C(=O)N3CCOCC3)cc21 | – | inactive: -1.09%
41 | COc1cccc(/C=N/Nc2ncnc3scc(-c4ccccc4)c23)c1O | active: 8.91 µM | –
42 | COc1ccccc1CNC(=O)C1COc2ccccc2O1 (stereo not given) | – | inactive: -22.8%
43 | Cn1cc(C(=O)C(F)(F)F)c2ccccc21 | inconclusive: 5.62 µM [activator, single point] | –
44 | CCCCNc1ncnc2c1cnn2-c1ccc(C)cc1C | – | inactive: -18.6%
45 | O=C(CS(=O)(=O)c1ccc(Cl)cc1)NCCS(=O)(=O)c1ccc(Cl)cc1 | – | inactive: 7.98%

Some of the entries so far, field by field:
CC(C)(C)c1csc(NNC(=O)c2ccc(Br)cc2)n1
  Potency: inconclusive: 35.5 µM [inhibitor, single point]
O=C(CNC(=O)OCc1ccccc1)Oc1cc2oc(=O)cc(-c3ccccc3)c2cc1Cl
  Potency: active: 7.08 µM
